Laboratory results from the supplement of paper PMC4604168 (melanoma cell lines).
This is one part of the list. Repeats are few or missing, and single values can be far off.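 Imaging used 1,536-well plates; nuclei positive for cleaved PARP by antibody were divided by total DNA-stained nuclei to yield the apoptosis fraction. Doses for screening kept most cells viable, and cell lines differ markedly in resting and induced cleaved-PARP levels.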

test system: UACC62; test: cleaved PARP positive nuclei fraction relative to DMSO control; melanoma cells; higher = more apoptosis; conditions: library dose: low library concentration; 72 h

Compound	cleaved PARP positive nuclei fraction [%]
CO[C@H]1C[C@@H]2CC[C@@H](C)[C@@](O)(O2)C(=O)C(=O)N2CCCC[C@H]2C(=O)O[C@H]([C@H](C)C[C@@H]2CC[C@@H](OCCO)[C@H](OC)C2)CC(=O)[C@H](C)/C=C(\C)[C@@H](O)[C@@H](OC)C(=O)[C@H](C)C[C@H](C)/C=C/C=C/C=C/1C [everolimus] + Nc1ncn([C@H]2C[C@H](O)[C@@H](CO)O2)c(=O)n1 [decitabine] (first compound 0.02 µM, partner dose 0.1 µM)	192
CO[C@H]1C[C@@H]2CC[C@@H](C)[C@@](O)(O2)C(=O)C(=O)N2CCCC[C@H]2C(=O)O[C@H]([C@H](C)C[C@@H]2CC[C@@H](OCCO)[C@H](OC)C2)CC(=O)[C@H](C)/C=C(\C)[C@@H](O)[C@@H](OC)C(=O)[C@H](C)C[C@H](C)/C=C/C=C/C=C/1C [everolimus] + CC(C)(C)c1cnc(CSc2cnc(NC(=O)C3CCNCC3)s2)o1 [SNS-032] (first compound 0.02 µM, partner dose 0.01 µM)	399
CO[C@H]1C[C@@H]2CC[C@@H](C)[C@@](O)(O2)C(=O)C(=O)N2CCCC[C@H]2C(=O)O[C@H]([C@H](C)C[C@@H]2CC[C@@H](OCCO)[C@H](OC)C2)CC(=O)[C@H](C)/C=C(\C)[C@@H](O)[C@@H](OC)C(=O)[C@H](C)C[C@H](C)/C=C/C=C/C=C/1C [everolimus] + Cc1cc([N+](=O)[O-])ccc1NS(=O)(=O)c1cc(Cl)ccc1Cl [FH535] (first compound 0.02 µM, partner dose 1 µM)	384
CO[C@H]1C[C@@H]2CC[C@@H](C)[C@@](O)(O2)C(=O)C(=O)N2CCCC[C@H]2C(=O)O[C@H]([C@H](C)C[C@@H]2CC[C@@H](OCCO)[C@H](OC)C2)CC(=O)[C@H](C)/C=C(\C)[C@@H](O)[C@@H](OC)C(=O)[C@H](C)C[C@H](C)/C=C/C=C/C=C/1C [everolimus] + O=C(O)c1ccc(-c2c[nH]c3ncc(-c4ccccc4)cc23)cc1C1CCCC1 [GSK650394] (first compound 0.02 µM, partner dose 0.16 µM)	501
CO[C@H]1C[C@@H]2CC[C@@H](C)[C@@](O)(O2)C(=O)C(=O)N2CCCC[C@H]2C(=O)O[C@H]([C@H](C)C[C@@H]2CC[C@@H](OCCO)[C@H](OC)C2)CC(=O)[C@H](C)/C=C(\C)[C@@H](O)[C@@H](OC)C(=O)[C@H](C)C[C@H](C)/C=C/C=C/C=C/1C [everolimus] + COc1ccc(COc2ccc(Cc3cnc(N)nc3N)cc2OC)cc1 [GW2580] (first compound 0.02 µM, partner dose 1 µM)	251
CO[C@H]1C[C@@H]2CC[C@@H](C)[C@@](O)(O2)C(=O)C(=O)N2CCCC[C@H]2C(=O)O[C@H]([C@H](C)C[C@@H]2CC[C@@H](OCCO)[C@H](OC)C2)CC(=O)[C@H](C)/C=C(\C)[C@@H](O)[C@@H](OC)C(=O)[C@H](C)C[C@H](C)/C=C/C=C/C=C/1C [everolimus] + O=S(=O)(c1ccccc1)N(CC(F)(F)F)c1ccc(C(O)(C(F)(F)F)C(F)(F)F)cc1 [T0901317] (first compound 0.02 µM, partner dose 1.4 µM)	195
Cn1c(=O)n(-c2ccc(C(C)(C)C#N)cc2)c2c3cc(-c4cnc5ccccc5c4)ccc3ncc21 + CN1CCN(c2ccc3nc(-c4c(N)c5c(F)cccc5[nH]c4=O)[nH]c3c2)CC1 [Dovitinib] (first compound 0.004 µM, partner dose 0.1 µM)	31.2
CO[C@H]1C[C@@H]2CC[C@@H](C)[C@@](O)(O2)C(=O)C(=O)N2CCCC[C@H]2C(=O)O[C@H]([C@H](C)C[C@@H]2CC[C@@H](OCCO)[C@H](OC)C2)CC(=O)[C@H](C)/C=C(\C)[C@@H](O)[C@@H](OC)C(=O)[C@H](C)C[C@H](C)/C=C/C=C/C=C/1C [everolimus] + COc1cc(Nc2ncc(F)c(Nc3ccc4c(n3)NC(=O)C(C)(C)O4)n2)cc(OC)c1OC [Tamatinib] (first compound 0.02 µM, partner dose 0.4 µM)	288
CO[C@H]1C[C@@H]2CC[C@@H](C)[C@@](O)(O2)C(=O)C(=O)N2CCCC[C@H]2C(=O)O[C@H]([C@H](C)C[C@@H]2CC[C@@H](OCCO)[C@H](OC)C2)CC(=O)[C@H](C)/C=C(\C)[C@@H](O)[C@@H](OC)C(=O)[C@H](C)C[C@H](C)/C=C/C=C/C=C/1C [everolimus] + CO[C@@H]1[C@H](N(C)C(=O)c2ccccc2)C[C@H]2O[C@]1(C)n1c3ccccc3c3c4c(c5c6ccccc6n2c5c31)C(=O)NC4 [Midostaurin] (first compound 0.02 µM, partner dose 0.08 µM)	244

Looked up one by one from above, 2 records:
Compound	cleaved PARP positive nuclei fraction [%]
CO[C@H]1C[C@@H]2CC[C@@H](C)[C@@](O)(O2)C(=O)C(=O)N2CCCC[C@H]2C(=O)O[C@H]([C@H](C)C[C@@H]2CC[C@@H](OCCO)[C@H](OC)C2)CC(=O)[C@H](C)/C=C(\C)[C@@H](O)[C@@H](OC)C(=O)[C@H](C)C[C@H](C)/C=C/C=C/C=C/1C [everolimus] + O=C(O)c1ccc(-c2c[nH]c3ncc(-c4ccccc4)cc23)cc1C1CCCC1 [GSK650394] (first compound 0.02 µM, partner dose 0.16 µM)	501
CO[C@H]1C[C@@H]2CC[C@@H](C)[C@@](O)(O2)C(=O)C(=O)N2CCCC[C@H]2C(=O)O[C@H]([C@H](C)C[C@@H]2CC[C@@H](OCCO)[C@H](OC)C2)CC(=O)[C@H](C)/C=C(\C)[C@@H](O)[C@@H](OC)C(=O)[C@H](C)C[C@H](C)/C=C/C=C/C=C/1C [everolimus] + O=S(=O)(c1ccccc1)N(CC(F)(F)F)c1ccc(C(O)(C(F)(F)F)C(F)(F)F)cc1 [T0901317] (first compound 0.02 µM, partner dose 1.4 µM)	195
